## Primary screen of a compound library

From ChEMBL document CHEMBL3988442, “University of Dundee, Small-Polar-MMV Screening Library” (2021).

Results are given as percent effect.
The record does not define 0% and 100%; most values in the screen are far below 50% and negative numbers occur (in some assays of this library far below -100).
Compounds were drawn at random from those tested, without regard to their results.

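Whole-cell assay for inhibitors of Mycobacterium tuberculosis growth, labelled Cornell in the record; the read-out is not stated. The concentration is filed as 10 mM, unlikely as a test dose, so the dose is not known. Higher means stronger inhibition (inferred from two other growth screens of the library). Size under these conditions: about 53,000 compounds, about 900 of them at 50% or above in at least one test.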

compound,Percent Effect
[H][C@]12CC[C@]([H])(CN(Cc3ccccc3SC)C1)N(CC1CC1)C2=O,24.72%
CS(=O)(=O)N1CCN(Cc2c(O)ccc3oc4c(c23)CCCC4)CC1,11.76%
Cc1nccc(NCc2cncc3c2CCN(CCN(C)C)C3)n1,-16.78%
CN(CCc1noc(C2CC2)n1)C(=O)CCc1cc2n(n1)CCCNC2,10.59%
Cn1c(CO)cnc1SC1CCCN(c2ccccc2F)C1=O (centres undefined),10.29%
Cc1nc(CN2CCN(Cc3cc4n(n3)CCNC4)CC2)cs1,-30.02%
Cc1nccn1CCCn1c(=O)cnc2ccccc21,-19.54%
O=C(O)C(F)(F)F.[H][C@@]12OCCN(C(=O)c3ccc(C)o3)[C@@]1([H])CC[C@@H]2OCc1ccccn1,24.91%
CCn1ccnc1CNC1CC(=O)N(CCc2cccc(Cl)c2)C1 (centres undefined),7.555%
O=C(C1CCOC1)N1CCC2(CCN(Cc3nccs3)CC2)CC1 (centres undefined),6.32%
CNc1ncc(-c2ccc(NC(=O)[C@@H]3CCCCN3)cc2)cn1,-10.57%
CN(C)C(=O)C(C)(C)c1ccc2c(c1)OCCO2,10.13%
Cc1cc(C)n(CC2CCCN2CC(=O)N(C)C)n1 (centres undefined),9.126%
NC(=O)c1c(SCCN2CCCCC2)sc2c(O)cc(=O)[nH]c12,-48.35%
COc1ccnc(CN2CCCC(CCc3ccccc3)C2)c1OC (centres undefined),18.07%
COc1ccc(C(C(=O)O)N2CCC(Cn3cccn3)CC2)cc1F (centres undefined),-27.4%
Cc1cnn(C2CN(Cc3nc(-c4ccco4)no3)C2)c1,12.24%
O=C(CN1CCOC(Cn2cncn2)C1)NC(C1CC1)C1CC1 (centres undefined),18.27%
COc1ccc2nc(CNC(=O)C3CC4(CCNCC4)CN3C)[nH]c2c1 (centres undefined),3.547%
CN(C)CC(C)(C)Cn1cnc(-c2ccccc2)c1-c1ncc[nH]1,-34.78%
Cc1ccc(OCC(=O)Nc2cc(C(=O)O)cc(S(C)(=O)=O)c2)cc1C,18.88%
CC(C)c1nsc(N2CCc3sccc3C2)n1,17.47%
CN(CCc1ccccn1)CCc1nccs1,3.259%
Cc1cnccc1N1CCCN(Cc2ccc(-c3cc[nH]n3)o2)CC1,-61.2%
NC(=O)c1ccn(COc2ccccc2Cl)n1,-1.886%
O=C(CCC(=O)N1CCC(Cc2ccc(CO)cc2)C1)c1ccccc1 (centres undefined),-15.97%
CN1CCNC(Cc2ccc(-c3ccncc3)cc2)C1=O.Cl (centres undefined),-9.938%
CN(C)CCN(C)C(=O)Cn1cccc2cc(-c3ccc(F)cc3)nc1-2,4.719%
O=C1NCC2(CCCN(C(=O)Nc3ccc4occc4c3)CC2)O1 (centres undefined),9.001%
CCN1CCCC1CNCc1cc2cc(OC)ccc2[nH]c1=O (centres undefined),-1.599%
O=S(=O)(Nc1ccon1)c1cc(Cl)cc2c1OCC2,34.98%
CN(C)C(=O)c1ccc(-c2cccc3c2CCNC3)o1,-22.1%
COC(=O)CCC(=O)N1CCCC2(CCCN2Cc2cccc(F)c2)C1.O=C(O)C(F)(F)F (centres undefined),-1.337%
Cc1ccc(C2CSCCN2CCS(C)(=O)=O)cc1 (centres undefined),4.681%
CCn1c(N)nc2cc(C(=O)N3CCCOCC3)cnc21,21.74%
CN1CC(=O)N(c2ccccc2)CC12CCN(CC1CC1)C2.O=C(O)C(F)(F)F.O=C(O)C(F)(F)F (centres undefined),-1.785%
Cn1nnc2c1C(COCC1CC1)CN(C(=O)Cc1ccsc1)C2 (centres undefined),31.13%
Cc1nc(Nc2nncs2)cc(C2CNC2)n1.O=C(O)C(F)(F)F,16.36%
Cc1cc(CN2CCc3cncnc3C2)no1,1.764%
CC(=O)CCCC(=O)N(Cc1ccsc1)CC(C)C,16.79%
O=C(O)C(F)(F)F.c1csc(CN2Cc3nccn3CC(Cn3cncn3)C2)c1 (centres undefined),3.259%
Cc1ccccc1CC(C)NC(=O)Nc1cnn(CC(N)=O)c1 (centres undefined),-26.23%
CC(=O)c1c(O)n(C)c2ccc(F)cc12,30.88%
O=C(Nc1ccc(-c2cscn2)cc1)C1CCCN(Cc2ccon2)C1 (centres undefined),27.37%
CC(C(=O)Nc1ccnn1C(C)C)N1CCCN(c2nccs2)CC1 (centres undefined),2.861%
COc1cccc(N2CC3(CCN(c4ccncn4)C3)CC2=O)c1 (centres undefined),10.34%
CN(CC(=O)Nc1nc2c(s1)CCCCCC2)C(=O)c1ccco1,15.28%
CSCCNC(=O)c1cc(Br)cn1C(C)C,-7.953%
CCC1CN(C(=O)NCc2cccnc2-n2cccn2)CCO1 (centres undefined),-23.3%
COc1ccc(CN2CCC3(CC2)CCN(CCN(C)C)C3=O)cc1.O=C(O)C(F)(F)F.O=C(O)C(F)(F)F,20.79%
[H][C@]12CCN(C(=O)CC(C)C)CC[C@@]1([H])S(=O)(=O)CCN2S(C)(=O)=O,19.19%
O=C(NCCNc1ncccn1)N(Cc1ccc(F)cc1F)C1CC1,16.26%
CCc1ccc(CC(=O)N2CCN(c3nccn3C)CC2)cc1,20.96%
Cc1ccc(-c2cccc(CC3(C(=O)O)CCOCC3)c2)c(C)c1,24.47%
COCC(C)N(C)C(=O)CCc1c(C)nc2c(C#N)cnn2c1C (centres undefined),4.706%
CN1CC(=O)N(c2cccc(F)c2)CC12CCNC2 (centres undefined),-13.58%
CCOc1cc(C)nc(N2CCN(C(=O)c3ccc[nH]3)CC2)n1,22.42%
O=C(NCCN1CCNC1=O)c1cc(-c2ccc(O)cc2)n[nH]1,15.58%
COCCNC(=O)Cn1ccc2ccc(F)cc21,-28.78%